PubChem BioAssay AID1259254 – NCATS – 2017

Purpose: 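Finding genes that stop cells copying their DNA twice in one cycle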 (primary screen)
Cell system: human HCT116 colorectal cancer cells
Reagents: single siRNA against human genes
Time to read-out: 3 days
Measured: 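Imaged Hoechst DNA stain sorts each cell into a cycle phase by DNA amount; per plate, G2 fraction set to 0% for non-targeting and 100% for GMNN siRNA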
Reading the numbers: G2 robust z-score and G2 cells, % of GMNN control: higher = more G2 cells, more excess DNA replication; raw share of cells in G2: higher = larger share of cells with G2 DNA content
Hit rule: 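Active siRNAs have a G2 robust z of 5 or more median absolute deviations over the median, which in these data means about 38% or higher of GMNN control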
This is an unselected part of about 59,000 reagents tested. Over the whole deposit, about 1,550 (2.6%) are marked active. 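G2 share is only a proxy for re-replication; each gene was hit by three separate siRNAs, and active genes were retested.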 Raw values are not corrected between plates. The numbers tell different reagents against one gene apart. The record does not give: the amount of reagent.

Target gene	reagent no.	G2 robust z-score	G2 cells, % of GMNN control	raw share of cells in G2 (%)	Outcome
ESRRA	1	4.27	33	16.8	inactive
ESRRA	2	0.0626	3.41	5.72	inactive
ESRRA	3	0.82	8.74	6.85	inactive
CD1A	1	-0.0962	2.29	6.38	inactive
CD1A	2	0.132	3.89	5.51	inactive
CD1A	3	-0.65	-1.61	2.89	inactive
SULT1B1	1	-1.1	-4.76	2.43	inactive
SULT1B1	2	-0.732	-2.18	3.46	inactive
SULT1B1	3	-0.365	0.402	6.35	inactive
ABHD15	1	-0.513	-0.644	3.83	inactive
ABHD15	2	-0.322	0.705	3.54	inactive
ABHD15	3	0.611	7.27	3.94	inactive
PCK2	1	4.23	32.7	17.6	inactive
PCK2	2	0.862	9.03	8.42	inactive
PCK2	3	-0.262	1.12	3.58	inactive
CCNE1	1	-0.0494	2.62	5	inactive
CCNE1	2	-0.86	-3.08	3.86	inactive
CCNE1	3	1.86	16.1	10.9	inactive
OR52N1	1	2.56	21	13.7	inactive
OR52N1	2	0.909	9.36	8.8	inactive
OR52N1	3	-0.37	0.365	2.79	inactive
RPL26L1	1	-1.1	-4.79	1.74	inactive
RPL26L1	2	-0.494	-0.507	3.66	inactive
RPL26L1	3	3.03	24.3	13.7	inactive
MPRIP	1	-0.36	0.433	6.54	inactive
MPRIP	2	-0.555	-0.939	3.84	inactive
MPRIP	3	-0.0681	2.49	4.72	inactive
UBA7	1	-0.0905	2.33	6.58	inactive
UBA7	2	-0.0164	2.85	5.42	inactive
UBA7	3	-1.14	-5.08	2.37	inactive

Laid out differently: entries from further up.
{"Target gene": "RPL26L1", "reagent no.": 1, "G2 robust z-score": -1.1, "G2 cells, % of GMNN control": -4.79, "raw share of cells in G2 (%)": 1.74, "Outcome": "inactive"}
{"Target gene": "RPL26L1", "reagent no.": 2, "G2 robust z-score": -0.494, "G2 cells, % of GMNN control": -0.507, "raw share of cells in G2 (%)": 3.66, "Outcome": "inactive"}
